Reference: PubChem BioAssay AID248 (DTP/NCI, 2004)
The list shows only some results of the screen, not a fair sample: it is rich in T/C values a quarter to a half above the control, in often repeated tests (any T/C) and in doses without a T/C. Other doses and runs of a compound stand elsewhere. T/C gives the treated animals as a percentage of the vehicle group. Some entries give survivors of the animals treated and no T/C: the source files T/C as zero there, which appears to mark a toxic dose or a test without result, not a measured value. Some doses without a T/C left all or most animals alive at the check, yet need not have been tolerated: survival well below the control is almost never listed, so the zero probably covers shortened survival too. Counts of survivors are from the toxicity check (mostly the fifth day) where no day follows; animals may have died later. Schedule codes are those of the source, read here as Q, the interval in days (D) or hours (H), X, the number of doses.

Test system: L1210 leukemia ip in BDF1 mice, survival T/C
Assay: NCI In Vivo Anticancer Drug Screen. Data for tumor model L1210 Leukemia (intraperitoneal) in B6D2F1 (BDF1) mice
Settings: T/C endpoint: mean survival time, higher T/C = longer survival

`COC(=O)Cc1oc(=O)n(-c2ccccc2)c(=O)c1C(=O)OC` was tested, and the survivor count (dose: 100.0 mg/kg/injection, schedule: Q04DX002 (ip), vehicle: gum acacia) was 2 of 3, the survivor count (dose: 200.0 mg/kg/injection, schedule: Q04DX002 (ip), vehicle: gum acacia) was 0 of 3 and the survivor count (dose: 400.0 mg/kg/injection, schedule: Q04DX002 (ip), vehicle: gum acacia) was 0 of 3.
In the case of `CCCCn1cccc1`, the survivor count (dose: 400.0 mg/kg/injection, schedule: Q04DX003 (ip), vehicle: saline with Tween-80) is reported as 0 of 6.
`CCC1C(=O)N(c2ccc(S(=O)(=O)O)cc2)N=C1C` (configuration not stated) was tested, and the survivor count (dose: 400.0 mg/kg/injection, schedule: Q04DX003 (ip), vehicle: Klucel (hydroxypropylcellulose) (HPC)) was 6 of 6.
For `O=c1[nH]c(Cl)nc2c(Cl)c(C(Cl)(Cl)Cl)nn12`, the survivor count (dose: 400.0 mg/kg/injection, schedule: Q01DX009 (ip), vehicle: saline with Tween-80) was 4 of 6.
In the case of `COC(=O)C(C)CSCc1ccccc1` (configuration not stated), the survivor count (dose: 200.0 mg/kg/injection, schedule: Q04DX002 (ip), vehicle: saline) is reported as 3 of 3.
